The values that follow come from PubChem BioAssay AID248 (DTP/NCI, 2004).

The structures appear in SMILES notation. The list shows only some results of the screen, not a fair sample: it is rich in T/C values a quarter to a half above the control, in often repeated tests (any T/C) and in doses without a T/C. Further doses and runs are listed elsewhere. T/C: endpoint of the treated group in % of that of the vehicle group. Some doses have a count of surviving animals in place of a T/C: the source files T/C as zero there, which appears to mark a toxic dose or a test without result, not a measured value. Some survivor counts are full or nearly so, which does not show that the dose was tolerated: survival well below the control is almost never listed, so the zero probably covers shortened survival too. Survivors were counted at the toxicity check, usually on the fifth day, unless a day is given; later deaths do not show. Schedule codes are those of the source, read here as Q, the interval in days (D) or hours (H), X, the number of doses. Some entries were tested several times; the values are given in rising order. Some schedules carry Z or #; the key to these is not given. For survival time, the PubChem record calls one and a half times the control and up active, and a quarter to a half above the control has no call in these data; cut-offs in other NCI protocols can differ.

The subject of the experiment is L1210 leukemia ip in BDF1 mice, survival T/C. Nature of the experiment: NCI In Vivo Anticancer Drug Screen. Data for tumor model L1210 Leukemia (intraperitoneal) in B6D2F1 (BDF1) mice. Conditions: T/C endpoint: mean survival time, higher T/C = longer survival.
Setting [1] is: dose: 50.0 mg/kg/injection, schedule: Q01DX009 (ip), vehicle: Klucel (hydroxypropylcellulose) (HPC).
[2] abbreviates: dose: 100.0 mg/kg/injection, schedule: Q01DX009 (ip), vehicle: Klucel (hydroxypropylcellulose) (HPC).
Setting [3] is: dose: 200.0 mg/kg/injection, schedule: Q01DX009 (ip), vehicle: Klucel (hydroxypropylcellulose) (HPC).
Setting [4] is: dose: 300.0 mg/kg/injection, schedule: Q01DX001 (ip), vehicle: other.
Setting [5] is: dose: 400.0 mg/kg/injection, schedule: Q01DX009 (ip), vehicle: Klucel (hydroxypropylcellulose) (HPC).
Where [6] appears, read: dose: 100.0 mg/kg/injection, schedule: Q01DX009 (ip), vehicle: saline.
Where [7] appears, read: dose: 200.0 mg/kg/injection, schedule: Q01DX009 (ip), vehicle: saline.
The mark [8] stands for this setting: dose: 400.0 mg/kg/injection, schedule: Q01DX001 (ip), vehicle: saline.

For `O=C(CCCCCCCC(=O)Nc1cc(C2=NCCN2)cc(C2=NCCN2)c1)Nc1cc(C2=NCCN2)cc(C2=NCCN2)c1`, the survivor count (dose: 25.0 mg/kg/injection, schedule: Q01DX Z (ip), vehicle: carboxymethylcellulose (CMC)) was 1 of 6; the survivor count (dose: 50.0 mg/kg/injection, schedule: Q01DX Z (ip), vehicle: carboxymethylcellulose (CMC)) is given as 0 of 6; the survivor count (dose: 100.0 mg/kg/injection, schedule: Q01DX Z (ip), vehicle: carboxymethylcellulose (CMC)) is 0 of 6.
Consider `N#Cc1ccccc1N=NNc1ccccc1C#N`, for which the survivor count is recorded as 0 of 6 under setting [1], 0 of 6 under setting [2], 0 of 6 under setting [3] and 0 of 6 under setting [4].
Take `C[N+](C)(C)Cc1c(C(O)(c2ccccc2)c2ccccc2)ccc2ccccc12`: the survivor count is, setting by setting: (dose: 200.0 mg/kg/injection, schedule: Q01DX001 (ip), vehicle: carboxymethylcellulose (CMC)) 2 of 4; (dose: 400.0 mg/kg/injection, schedule: Q01DX001 (ip), vehicle: carboxymethylcellulose (CMC)) 1 of 4.
For the compound `COC(=O)C1C(O)C(C)C(O)C(C)C=C(C)C2=C3C(=C(C)C(=O)c4c(O)c(c(C)c(OC(C)=O)c43)NC(=O)C(C)=C/C=C\C(C)C(O)C(C)C1O)OCO2` (stereo not drawn), the survivor count (dose: 400.0 mg/kg/injection, schedule: Q04DX002 (ip), vehicle: Klucel (hydroxypropylcellulose) (HPC)) is 1 of 3.
For the compound `c1ccc(CC2NCCc3c2[nH]c2ccccc32)cc1` (stereo not drawn), the survivor count (dose: 50.0 mg/kg/injection, schedule: Q04DX003 (ip), vehicle: Klucel (hydroxypropylcellulose) (HPC)) is 4 of 4 and the survivor count under setting [5] is 2 of 6.
With `COC(=O)C1C2CC3c4[nH]c5cc(OC)ccc5c4CCN3CC2CC(OC(=O)c2cc(OC)c(OC)c(OC)c2)C1OC` (stereo not drawn), the survivor count was 0 of 6 under setting [2]; 0 of 4 (dose: 200.0 mg/kg/injection, schedule: Q04DX003 (ip), vehicle: saline); 0 of 4 (dose: 400.0 mg/kg/injection, schedule: Q04DX003 (ip), vehicle: saline).
Take `CNC(=O)N(C)N`: the survivor count runs as follows: under setting [6], 1 of 6; under setting [7], 0 of 6; (dose: 400.0 mg/kg/injection, schedule: Q01DX009 (ip), vehicle: saline) 0 of 6.
Take `CCOC(=O)NC#N` (tested in a mixture with another compound): the survivor count by setting is: (dose: 75.0 mg/kg/injection, schedule: Q01DX001 (ip), vehicle: saline) 1 of 6; (dose: 150.0 mg/kg/injection, schedule: Q01DX001 (ip), vehicle: saline) 0 of 6; (dose: 300.0 mg/kg/injection, schedule: Q01DX001 (ip), vehicle: saline) 0 of 6.
Take `C(OC[C@H]1CC[C@@H](COCC2CO2)O1)C1CO1` (stereo partly drawn): the T/C (dose: 180.0 mg/kg/injection, schedule: Q01DX007 (ip), vehicle: saline) is 129 % of control; the T/C (dose: 300.0 mg/kg/injection, schedule: Q01DX009 (ip), vehicle: saline) is 138 % of control; the T/C under setting [8] was 125 and 136 % of control; the T/C (dose: 450.0 mg/kg/injection, schedule: Q01DX009 (ip), vehicle: saline) was 136 % of control; the T/C (dose: 600.0 mg/kg/injection, schedule: Q01DX001 (ip), vehicle: saline) was 126 % of control.
For `O=C1C=CC(=O)N1CCc1ccccc1`, the survivor count is 6 of 6 (dose: 25.0 mg/kg/injection, schedule: Q01DX009 (ip), vehicle: Klucel (hydroxypropylcellulose) (HPC)); 0 of 6 (dose: 40.0 mg/kg/injection, schedule: Q04DX003 (ip), vehicle: saline with Tween-80); 0 of 6 under setting [1]; 0 of 6 (dose: 80.0 mg/kg/injection, schedule: Q04DX003 (ip), vehicle: saline with Tween-80); 1 of 6 under setting [2]; 0 of 6 under setting [3]. In addition, under setting [5], the survivor count was 0 of 6.
For the compound `CN(C)N=C1CCCC1`, under setting [7], the survivor count is 3 of 6.
For the compound `Cn1c(N)c(C=O)c(=O)n(C)c1=O`, the survivor count is on record as 0 of 6 (dose: 100.0 mg/kg/injection, schedule: Q04DX003 (ip), vehicle: Klucel (hydroxypropylcellulose) (HPC)); 0 of 6 (dose: 200.0 mg/kg/injection, schedule: Q04DX003 (ip), vehicle: Klucel (hydroxypropylcellulose) (HPC)); 0 of 6 (dose: 400.0 mg/kg/injection, schedule: Q04DX003 (ip), vehicle: Klucel (hydroxypropylcellulose) (HPC)).
For `N=C(N)SCC(=O)c1ccc([N+](=O)[O-])cc1`, the survivor count (dose: 400.0 mg/kg/injection, schedule: Q04DX002 (ip), vehicle: saline with Tween-80) is recorded as 2 of 3.
For `CNC(=N)c1ccc(NC(=N)c2ccc(NC(=O)Nc3ccc(C(=N)Nc4ccc(C(=N)NC)cc4)cc3)cc2)cc1`, the T/C (dose: 3.7 mg/kg/injection, schedule: Q01DX Z (ip), vehicle: carboxymethylcellulose (CMC)) was 127 % of control and the T/C (dose: 28.0 mg/kg/injection, schedule: Q01DX Z (ip), vehicle: carboxymethylcellulose (CMC)) is 127 % of control. Further, the survivor count was 3 of 5 (dose: 14.0 mg/kg/injection, schedule: Q01DX Z (ip), vehicle: water); 0 of 6 (dose: 21.0 mg/kg/injection, schedule: Q01DX Z (ip), vehicle: water); 0 of 6 (dose: 28.0 mg/kg/injection, schedule: Q01DX Z (ip), vehicle: water); 0 of 6 (dose: 36.0 mg/kg/injection, schedule: Q01DX Z (ip), vehicle: water); 0 of 6 (dose: 42.0 mg/kg/injection, schedule: Q01DX Z (ip), vehicle: water); 0 of 6 (dose: 63.0 mg/kg/injection, schedule: Q01DX Z (ip), vehicle: water). Further, the survivor count (dose: 95.0 mg/kg/injection, schedule: Q01DX Z (ip), vehicle: water) is 0 of 6.
In the case of `C/C(=N/NC(N)=S)c1c(C)[nH]c2ccccc12`, the survivor count is, setting by setting: (dose: 75.0 mg/kg/injection, schedule: Q01DX001 (ip), vehicle: alcohol) 1 of 6; (dose: 150.0 mg/kg/injection, schedule: Q01DX001 (ip), vehicle: alcohol) 0 of 6; (dose: 300.0 mg/kg/injection, schedule: Q01DX001 (ip), vehicle: alcohol) 0 of 6.
Turning to `C1CCC(C2CCCC(C3CCCC[N-]3)[N-]2)[N-]C1.[Cl][Pt]` (stereo not drawn), the survivor count runs as follows: under setting [6], 2 of 6; under setting [7], 0 of 6.
With `C(=C\[P+](Cc1ccccc1)(c1ccccc1)c1ccccc1)/c1ccccc1`, the survivor count is on record as 4 of 6 (dose: 50.0 mg/kg/injection, schedule: Q04DX003 (ip), vehicle: saline with Tween-80); 0 of 6 (dose: 100.0 mg/kg/injection, schedule: Q04DX003 (ip), vehicle: saline with Tween-80); 0 of 6 (dose: 200.0 mg/kg/injection, schedule: Q04DX003 (ip), vehicle: saline with Tween-80); 0 of 6 (dose: 400.0 mg/kg/injection, schedule: Q04DX003 (ip), vehicle: saline with Tween-80).
In the case of `CNC(=O)Oc1c([N+](=O)[O-])cc([N+](=O)[O-])c2ccccc12`, the survivor count under setting [4] is recorded as 0 of 6.
Take `CN1CCC(CO)CC1`: under setting [8], the survivor count was 1 of 4.
For `CCOC(=O)c1ccc(NC(=O)c2ccc(Cl)cc2Cl)cc1`, the survivor count (dose: 400.0 mg/kg/injection, schedule: Q01DX009 (ip), vehicle: saline with Tween-80) was 0 of 3 and 2 of 6.
For the compound `ICc1ccc(CI)cc1`, the survivor count reads like this: (dose: 50.0 mg/kg/injection, schedule: Q01DX009 (ip), vehicle: saline) 3 of 6; under setting [6], 0 of 6; (dose: 200.0 mg/kg/injection, schedule: Q04DX003 (ip), vehicle: acetone) 6 of 6; (dose: 400.0 mg/kg/injection, schedule: Q04DX003 (ip), vehicle: acetone) 2 of 6.
